At least one structure is not confirmed: it was looked up by name or label, or the drawing left a doubt. Some compounds share one wording; it may come from a single statement.
Tested on: protein leaked from the dural blood vessel caused by 5-HT
Test: Preventive effect in guinea pig migraine model (leaked protein)
Format: in vivo
Conditions: 10 mg/kg or 30 mg/kg of oral administration
Method: (4) Preventive Effect in Guinea Pig Migraine Model
In this test system, migraine preventive effect was evaluated by measuring this leaked protein in the presence of a compound to be tested, and this was carried out by partially modifying the method described in Rachel A. Spokes and Vicki C. Middlefell, European Journal of Pharmacology (1995) 281, 75-79.
Hartley male guinea pig (250-350 g) was anesthetized by peritoneal administration (i.p.) of urethane (1.5 g/kg). By applying simple canulation to a saphena, 50 mg/kg of a fluorescent protein (FITC-BSA) was intravenously administered (i.v.) and 5 minutes thereafter, physiological saline or 1 μM of 5-HT was intravenously administered. By carrying out perfusion with physiological saline 15 minutes thereafter, blood was washed out. […] By detaching the skull, dura mater was took out and incubated at 37° C. for 16 hours in an Eppendorf tube in the presence of physiological saline of pH 11. Centrifugation was carried out, and the supernatant was dispensed into a plate. Fluorescence intensity was measured using a fluorescence plate reader (excitation wavelength 485 nm, […] 530 nm). By measuring dura mater weight, fluorescence intensity per mg dural protein was calculated.
Values of the fluorescence intensity measured at the time of the administration of each compound and at the time of no administration are shown in FIG. 1 to FIG. 4. […] The control indicates fluorescence intensity at the time of no addition of 5-HT, namely the reference value.

SMILES	leakage of the protein
COC1(C)c2ccccc2-c2ccc(C(=O)N=C(N)N)cc21 (stereo not drawn) [Example 71, N-(diaminomethylene)-9-methoxy-9-methyl-9H-fluorene-2-carboxamide]	almost completely suppressed leakage of the protein
CCC1(OC)c2ccccc2-c2ccc(C(=O)N=C(N)N)cc21 (stereo not drawn) [Example 72, N-(diaminomethylene)-9-ethyl-9-methoxy-9H-fluorene-2-carboxamide]	almost completely suppressed leakage of the protein
COC1(C)c2cc(C(=O)N=C(N)N)ccc2-c2c(F)cccc21 (stereo not drawn) [Example 87, N-(diaminomethylene)-5-fluoro-9-methoxy-9-methyl-9H-fluorene-2-carboxamide]	almost completely suppressed leakage of the protein

Reference: patent US20080200551A1, “Flourene Derivative” (priority 2004, published 2008)
